Values from PubChem BioAssay AID1159584 (Peter MacCallum Cancer Centre, 2016)
The whole screen tested about 18,000 reagents; this is a random part of them. Further read-outs or replicates are left out here. No sequences are given here. The record does not give: the amount of reagent, the time to read-out.

- Aim: 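Genes that CDH1-null MCF10A cells selectively depend on to survive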 (primary screen)
- Cell system: human MCF10A breast epithelial cells, parental and CDH1-null
- Knock-down reagent: siRNA against human genes
- Detection: 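Cell viability by CellTiter-Glo ATP luminescence, each line scaled to the mean of mock wells across plates, then CDH1-null over parental ratio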
- Scale: CDH1-null / parental viability ratio: higher = CDH1-null cells survive relatively better than parental; CDH1-null viability vs mock: higher = more viable CDH1-null cells

| gene symbol | CDH1-null / parental viability ratio | CDH1-null viability vs mock (fraction of mock) |
| --- | --- | --- |
| NFE4 | 1.08 | 0.52 |
| TAF11 | 1.31 | 0.84 |
| TIPE3 | 0.85 | 0.45 |
| AARS2 | 1.05 | 0.9 |
| LINC00303 | 1.24 | 0.82 |
| NMS | 0.9 | 0.54 |
| TMEM45A | 1 | 0.86 |
| PEG10 | 1.11 | 0.9 |
| FOXL1 | 0.85 | 0.78 |
| DEFB107B | 0.96 | 0.81 |
| SLC46A2 | 1.03 | 0.71 |
| ZNF257 | 0.95 | 0.7 |
| FBXW12 | 1.08 | 0.78 |
| ABCA7 | 1.14 | 1.12 |
| RILPL2 | 1.11 | 0.93 |
| GJB2 | 0.74 | 0.46 |
| NSUN2 | 1.14 | 0.97 |
| CIMIP6 | 1.08 | 1.12 |
| MAP2K6 | 0.84 | 0.72 |
| RUSC2 | 1.38 | 0.4 |
| RPUSD2 | 0.69 | 0.59 |
| MUS81 | 1.05 | 1.03 |
| EBP | 0.97 | 0.86 |
| RALGAPA1 | 1.46 | 0.38 |
| B3GALNT2 | 1.01 | 0.99 |
| MC5R | 1.32 | 0.98 |
| CDH20 | 1.06 | 1.02 |
| CST11 | 0.96 | 0.94 |
| ZNF358 | 0.98 | 0.53 |
| CCL3 | 1.39 | 0.64 |
| ISYNA1 | 0.74 | 0.65 |
| OR1L1 | 0.82 | 0.66 |
| SKA2 | 1.15 | 1.29 |
| RPL18P4 | 1.58 | 0.82 |
| MAF1 | 1.29 | 0.72 |
| DENND10P1 | 0.87 | 0.82 |
| KLHDC7A | 0.95 | 0.73 |
| INTS3 | 0.96 | 0.86 |
| SLC4A7 | 0.87 | 0.67 |
| REC8 | 0.84 | 0.59 |
| ZNF71 | 1.42 | 0.85 |
| TIMM44 | 1.03 | 0.64 |
| PSMD10 | 0.98 | 0.82 |
| CFAP410 | 1.43 | 0.4 |
| CLEC4M | 0.94 | 0.66 |
| HOXA7 | 1.01 | 0.81 |
| GRIK5 | 1.14 | 0.96 |
| LEPR | 0.92 | 0.8 |
| SMN2 | 1.09 | 0.61 |
| IFT74 | 0.93 | 0.71 |
| VSTM2A | 1.01 | 0.92 |
| S100A7 | 1.09 | 0.87 |
| RASSF2 | 1.09 | 0.62 |
| ISL1 | 0.83 | 0.55 |
| RFC1 | 0.76 | 0.9 |
| GCGR | 0.86 | 0.77 |
| SYT12 | 0.75 | 0.66 |
| PIGZ | 0.91 | 0.64 |
| SHISA5 | 0.63 | 0.34 |
| NT5C1A | 1.56 | 0.81 |
| SLC17A6 | 0.98 | 1.06 |
| ASPHD1 | 1.13 | 0.79 |
| KIR2DL5B | 1.01 | 0.7 |
| DIAPH2 | 1.07 | 0.9 |
| ANKS1B | 0.79 | 0.52 |
| INPP5B | 1.07 | 0.78 |
| CLN8 | 0.98 | 0.56 |
| ATP1B3 | 0.88 | 0.6 |

Reformatted: 4 of the entries above.
gene symbol	CDH1-null / parental viability ratio	CDH1-null viability vs mock (fraction of mock)
SLC4A7	0.87	0.67
REC8	0.84	0.59
ZNF71	1.42	0.85
TIMM44	1.03	0.64
